This is one part of the list.

The test system of the assay is T1, CTL2-GFP (C. trachomatis L2/434/Bu, GFP-expressing).
T1 construct: L2/434/Bu, GFP-expressing
Further details: species or system HeLa; Intracellular C. trachomatis growth in HeLa cells, bulk GFP fluorescence relative to DMSO. Particulars: bulk GFP, single well; 28.5 h, 10 µM; inhibitor.
As for `O=c1[nH]c2ncc(-c3cccc(-c4ccccc4)c3)nc2n1CCCN1CCOCC1` [CBK064311], the “% of control remaining” value is given as 148.481%.

For `O=C(O)c1cc(S(=O)(=O)NCc2ccco2)ccc1Br` [CBK306193], the “% of control remaining” value is recorded as 126.874%.

`COc1ccc(-c2cnc3[nH]c(=O)n(Cc4cccs4)c3n2)c(OC)c1OC` [CBK064716]: the “% of control remaining” value is reported as 112.836%.

Regarding `CS(=O)(=O)N1CCN(Cc2cc(Br)ccc2O)CC1` [CBK263620G], the “% of control remaining” value was determined as 112.979%.

Turning to `Cc1cccc(NC(=O)c2n[nH]c3ccccc23)c1` [CBK288231], the “% of control remaining” value stood at 118.829%.

Turning to `Nc1cc2ccccc2c(-c2ccc(OC(F)(F)F)cc2)n1` [CBK085725], the “% of control remaining” value is 93.5918%.

For `COc1ccc2c(c1)c(=O)oc1c(CN3CCCC3)c(O)ccc12` [CBK266814], the “% of control remaining” value stood at 167.657%.

In the case of `CCc1nc(NC(=O)c2ccnc(Cl)c2)sc1C` [CBK298287], the “% of control remaining” value is 136.346%.

Turning to `C(=C\C1Nc2ccccc2-c2nnc(SCc3ccccc3)nc2O1)/c1ccccc1` (centres unmarked) [CBK264447], the “% of control remaining” value was determined as 102.859%.

With `Cc1nc(C2(O)CCCN(C3CCCC3)CC2)sc1COc1ccc(F)c(F)c1` (centres unmarked) [CBK286259], the “% of control remaining” value was 81.0806%.

With `CC1CCCCN1S(=O)(=O)c1ccc(NCCC(=O)c2ccc(Cl)cc2)cc1` (centres unmarked) [CBK268529], the “% of control remaining” value is 86.9837%.

Consider `O=C(CN1C(=O)C2C3c4ccccc4C(c4ccccc43)C2C1=O)OCC(=O)c1ccc(F)cc1` (centres unmarked) [CBK264861], for which the “% of control remaining” value was 109.608%.

`Brc1cn2ccnc2c(NCCc2ccccn2)n1` [CBK066244]: the “% of control remaining” value amounted to 127.581%.

`Brc1ccccc1-c1nnc2n1CCCCC2` [CBK200092]: the “% of control remaining” value came out at 100.48%.

For `Cc1nc(-c2ccccc2F)sc1C(=O)Nc1ccccn1` [CBK287979], the “% of control remaining” value was 141.637%.

As for `Cc1ccc(CN2CC[C@H]3[C@@H](C2)[C@H](c2ccsc2)CN3C(=O)c2ccc(F)cc2)cc1` [CBK285637], the “% of control remaining” value is 114.95%.

With `CC(C)(C)OC(=O)N1CCCC(C(=O)Nc2ccccn2)C1` (centres unmarked) [CBK304524], the “% of control remaining” value was 107.408%.

Take `OCCNc1cncc(-c2ccccc2)n1` [CBK065857]: the “% of control remaining” value was found to be 132.945%.

As to `O=S(=O)(NCc1ccccc1)c1cc(S(=O)(=O)c2ccc(Cl)cc2)ccc1Cl` [CBK263207], the “% of control remaining” value is reported as 72.5445%.

Regarding `Cc1cccc(CNc2nccnc2-c2cccc(N)c2)c1` [CBK038080], the “% of control remaining” value amounted to 107.388%.

As for `CCOC(=O)c1sc(NS(=O)(=O)Cc2ccccc2)nc1C` [CBK047448], the “% of control remaining” value was determined as 122.6%.

For the molecule `O=C(O)CCN1C(=O)c2ccc(NC(=O)c3ccccc3Cl)cc2C1=O` [CBK268413], the “% of control remaining” value is given as 122.449%.

Regarding `c1ccc2c(Sc3cnccn3)cccc2c1` [CBK085841], the “% of control remaining” value amounted to 101.885%.

Consider `CCCOCCN1CCN(C(=O)c2nn3cc(C)cnc3c2Cl)CC1` [CBK306690], for which the “% of control remaining” value was found to be 124.875%.

For `CC(C#CCN(C)C)N1C(=O)CCC1C` (centres unmarked) [CBK008291G], the “% of control remaining” value was 91.2477%.

In the case of `CCCCCNC(=O)N1CCN(CCCC(c2ccc(F)cc2)c2ccc(F)cc2)CC1` [CBK024917C], the “% of control remaining” value is listed as 121.747%.

For the molecule `Cc1cccnc1CN1CCC2(CCc3ccccc3C(=O)N2)C1` (centres unmarked) [CBK284611], the “% of control remaining” value amounted to 112.542%.

For `Brc1cnn(-c2ccccc2)c1` [CBK027172], the “% of control remaining” value amounted to 145.474%.

Turning to `O=C(CCCc1ccccc1)Nc1c(F)cc(F)cc1OC1CCNCC1` [CBK050222T], the “% of control remaining” value is on record as 100%.

Take `c1cncc(CN2CCC(Oc3cncc(OCC4COc5ccccc5O4)n3)C2)c1` (centres unmarked) [CBK084365]: the “% of control remaining” value came to 109.824%.

For `Cc1ccc(C)c(C(=O)CCC(=O)Nc2cccnc2)c1` [CBK266902], the “% of control remaining” value worked out at 214.978%.

On to `Cc1cc2cc3n(c2nn1)N=C(Cl)CC3` [CBK019458], for which the “% of control remaining” value came to 134.825%.

For `CCn1cnc2cc(NC(=O)c3ccc(C)n(C)c3=O)ccc21` [CBK281402], the “% of control remaining” value is on record as 90.7237%.

For `CC(=O)N1CCc2c(sc(NC(=O)c3ccccc3C)c2C#N)C1` [CBK304681], the “% of control remaining” value worked out at 92.4057%.

On to `FC(F)(F)c1ccnc(SCCOc2ccccc2)n1` [CBK103721], for which the “% of control remaining” value is given as 97.7214%.

For the molecule `COc1ccc(/C(C)=N/NC(=N)SC2CC(=O)N(c3ccc(C(=O)O)cc3)C2=O)cc1F` (centres unmarked) [CBK262805], the “% of control remaining” value worked out at 95.9005%.

For `CN1CCC[C@H]1C(=O)N1CCC(Cn2cncn2)(C2CCCCC2)CC1` [CBK136818], the “% of control remaining” value came out at 118.049%.

For `COc1cc(OC)c(CN2CC3(C)CC2CC(C)(C)C3)cc1Br` (centres unmarked) [CBK307074], the “% of control remaining” value was found to be 145.858%.

On to `CC1Oc2ccc(NC(=O)C3CC4C=CC3C43CC3)cc2NC1=O` (centres unmarked) [CBK281523], for which the “% of control remaining” value stood at 116.735%.

As to `Cc1ccc(S(=O)(=O)N2CCOCC2)cc1-c1cncc(-c2ccc(O)cc2)n1` [CBK123789], the “% of control remaining” value came to 93.3062%.

As to `O=C(CC(C(=O)O)C1CCCO1)Nc1ccc(Cl)cc1Cl` (centres unmarked) [CBK261509], the “% of control remaining” value is reported as 120.122%.

`CNC(=O)c1cn2cc(-c3cccs3)n(CC3CC3)c(=O)c2n1` [CBK306838]: the “% of control remaining” value turned out to be 176.329%.

As to `COc1ccccc1-c1cnc(N)c(NC2CCOCC2)n1` [CBK063853], the “% of control remaining” value was 145.591%.

Consider `Cc1c(NC(=S)NC(=O)COc2ccc(Cl)cc2)cccc1C(=O)O` [CBK265070], for which the “% of control remaining” value was determined as 100%.

Regarding `CCCCCC1/C(=N\O)CCC1CC(=O)OC` (centres unmarked) [CBK019978], the “% of control remaining” value is on record as 139.248%.

As to `O=C(NCCCN1CCOCC1)c1c(Cl)cccc1Cl` [CBK263631], the “% of control remaining” value was 115.624%.

With `CC1=NN(c2nc(-c3ccc(Br)cc3)cs2)C(=O)C1/N=N/c1cccc(CO)c1` (centres unmarked) [CBK262429], the “% of control remaining” value is 100%.

As for `O=[N+]([O-])c1cc(CN2CCCCC2)c2cccnc2c1O` [CBK265121], the “% of control remaining” value turned out to be 138.097%.

For the molecule `COc1cc(C(=O)N/C(=C\c2ccc(O)cc2)C(=O)O)cc(OC)c1OC` [CBK262607], the “% of control remaining” value is given as 112.959%.

Turning to `O=C(CN(c1ccc(F)cc1)S(=O)(=O)c1ccccc1)Nc1ccc2c(c1)OCCO2` [CBK265215], the “% of control remaining” value came to 125.886%.

Turning to `O=C(Nc1nccs1)c1ncn[nH]1` [CBK028821], the “% of control remaining” value was found to be 114.321%.

`Cc1cnc2[nH]c(C(C)C)c(CN3CCCOCC3)c2c1` [CBK284742]: the “% of control remaining” value turned out to be 124.145%.

For `O=C(O)C1CCN(S(=O)(=O)c2ccc(F)cc2)CC1` [CBK100196], the “% of control remaining” value was determined as 82.6986%.

The record behind these values is article PMC12040169 (PLOS Biology, 2025).
